# Reference: paper PMC7819943, “Rice protein-binding microarrays: a tool to detect cis-acting elements near promoter regions in rice”
# The chains behind the UniProt entries cited, without tags or fusion partners.
# UniProt Q0JBA9, entry or part of it: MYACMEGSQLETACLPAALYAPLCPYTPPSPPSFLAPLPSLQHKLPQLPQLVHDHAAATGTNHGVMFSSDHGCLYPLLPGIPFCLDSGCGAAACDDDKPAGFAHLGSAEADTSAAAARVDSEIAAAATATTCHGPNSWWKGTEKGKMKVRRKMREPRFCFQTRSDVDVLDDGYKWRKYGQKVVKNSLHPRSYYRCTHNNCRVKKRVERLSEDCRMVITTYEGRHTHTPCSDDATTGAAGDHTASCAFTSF
# Some of the results follow.
# Target: OsWRKY34 (Oryza sativa, UniProt Q0JBA9 1-250)
# Assay: protein-binding microarray (RPBM); PBS, 2% BSA, 51.3 ng/ul salmon testes DNA, 50 uM zinc acetate, 200 nM TF, 25 C, 1 h; high values mean tight binding
# Conditions: protein: recombinant; tags: N-terminal polyhistidine and DsRed monomer fusion (pET32a); label: CyDye5-dUTP incorporated in the synthesized complementary strand; 3' TTTTT single-stranded linker to array surface; dsDNA, one strand shown
# Summary of the method: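 Transcription factors were each fused at the N-terminus to a polyhistidine tag plus DsRed and expressed in E. coli BL21-CodonPlus before Ni–NTA purification. Binding to a double-stranded custom Agilent array was carried out with 200 nM protein at 25 °C for 1 h in PBS, 2% BSA, salmon testes DNA and 50 µM zinc acetate. The binding signal is per-feature fluorescence intensity, in arbitrary units, on an Axon 4000B scanner.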
row,Sequence,binding signal
1,GTTCTCTTAATTAACTTGGGTTAAAATTTTTATCTCTCTCCGGAGTCACCTAGTGCAG,8160 fluorescence intensity (a.u.)
2,TTCGGTTGCACGCTCGCTTGTCTGGTTGTTGATCGATCGACGGAGTCACCTAGTGCAG,11100 fluorescence intensity (a.u.)
3,GCATATTTGTTTCTTTGTGTTCCCTTGTCGAGAGCTTGTCCGGAGTCACCTAGTGCAG,8970 fluorescence intensity (a.u.)
4,ATCTTCGCGCATCCCCACATCGCCGCGCCCGCTCCACTCTCGGAGTCACCTAGTGCAG,9760 fluorescence intensity (a.u.)
5,GTCACCATGTGAACACGTATGCTTCTCTTCATTCATTCTTCGGAGTCACCTAGTGCAG,9200 fluorescence intensity (a.u.)
6,GACTCTTTGTCTCTTCGGGTCTTCTTTTACCTACATTGTCCGGAGTCACCTAGTGCAG,11300 fluorescence intensity (a.u.)
7,TTCCTCCACAACATCCTCATCCGCGCCTCCGCCTCCTCCGCGGAGTCACCTAGTGCAG,9350 fluorescence intensity (a.u.)
8,CTCCATTCCGTTCCCTATTCTTCGAAAGGTGCCGATACCCCGGAGTCACCTAGTGCAG,11400 fluorescence intensity (a.u.)
9,GTGCGCCGCCACCGCCCGCCCCACCGCCGCCGCCGCCCACCGGAGTCACCTAGTGCAG,11000 fluorescence intensity (a.u.)
10,AAATTCCAAGCCAAGGCCCTCGTCTCGTCTCGCACTCTCGCGGAGTCACCTAGTGCAG,9050 fluorescence intensity (a.u.)
11,GTACACATGTTTCAGATGGATATATCATGCACACTGACTACGGAGTCACCTAGTGCAG,9090 fluorescence intensity (a.u.)
12,TTGACGTGTAAGGAGCTGTAATTTGTTGTCATCATAATTGCGGAGTCACCTAGTGCAG,8490 fluorescence intensity (a.u.)
13,ATCCTACCACAATCCTCATCGCCGTTTGATCGTCAGACCACGGAGTCACCTAGTGCAG,9620 fluorescence intensity (a.u.)
14,GACTTATATTTACAATATCTTATTAAACATTGCTTGTGTTCGGAGTCACCTAGTGCAG,8560 fluorescence intensity (a.u.)
15,AGAAAAGCTCTACATGCATGTCTATTCCAGTGATTTCTGACGGAGTCACCTAGTGCAG,8320 fluorescence intensity (a.u.)
16,GATTAACTCACAGTTGTACCCTCATTTTTGTTTGGCTGATCGGAGTCACCTAGTGCAG,9730 fluorescence intensity (a.u.)
17,AATTTCCACCCTCTGAACTTTCAGCATTGTTCTTGTATTCCGGAGTCACCTAGTGCAG,8810 fluorescence intensity (a.u.)
18,GGTGGGGCCGGGGCGGCAGTGAGTACAAAAGCAAAAGGGTCGGAGTCACCTAGTGCAG,8620 fluorescence intensity (a.u.)
19,ATCATCTATAAAAATCACTTGTCTCGCTGTTAAATAGTCACGGAGTCACCTAGTGCAG,8070 fluorescence intensity (a.u.)
20,CAGTAAGTTGTTTTCTAGTAGCATCAATGTTAAAATTCCTCGGAGTCACCTAGTGCAG,8520 fluorescence intensity (a.u.)
21,GCACGTGAGATCCTCACCCGCGCTCCCCAACGGCTATATTCGGAGTCACCTAGTGCAG,9300 fluorescence intensity (a.u.)

row,Sequence,binding signal
1,GCCATTCACCATACGGTAAGCGCCTGCGCCGCCGCTTCTTCGGAGTCACCTAGTGCAG,9870 fluorescence intensity (a.u.)
2,CCTCGTTAACTGCAACCCATCGATTGCCACATCTACACCTCGGAGTCACCTAGTGCAG,10300 fluorescence intensity (a.u.)
3,CTCGCTCGCCAATTCGCCATGATCGGGTGGGGCTCCGCTACGGAGTCACCTAGTGCAG,10000 fluorescence intensity (a.u.)
4,ACTGGTTGTGCTCTTTAATTATCACTTTATGCGCACTTTTCGGAGTCACCTAGTGCAG,8270 fluorescence intensity (a.u.)
5,AGCAACCTTTTGTCAGATCCTCCGCCACCAAGCTCATGCCCGGAGTCACCTAGTGCAG,9420 fluorescence intensity (a.u.)
6,TGTAGTGATGGGAGCGCGTGGAGTGGAATTGACTAGTACTCGGAGTCACCTAGTGCAG,8100 fluorescence intensity (a.u.)
7,ACCTGCCGCCGCTGCCGCATCCGCCGCCACCACGACCAACCGGAGTCACCTAGTGCAG,8620 fluorescence intensity (a.u.)
8,AGCTTCAGATTGGCAAGTTCAACATGTGTTTTTAGTTAGTCGGAGTCACCTAGTGCAG,8530 fluorescence intensity (a.u.)
9,TCTGCTTGCTTGCCTGCCACTGTGCCACTGCCGACCAATCCGGAGTCACCTAGTGCAG,8740 fluorescence intensity (a.u.)
10,GCTACCACACGCCACCTCTCCTCGCCATTCGCTGCGCTCGCGGAGTCACCTAGTGCAG,9390 fluorescence intensity (a.u.)
11,ATCTCGGTCTCTCACAAGACACACAGCTAATTAGCTCTATCGGAGTCACCTAGTGCAG,8470 fluorescence intensity (a.u.)
12,CATTCATTTTCGTGAAACTCTTTTAGCTCCTTGCAATTTTCGGAGTCACCTAGTGCAG,9370 fluorescence intensity (a.u.)
13,ATCCTTTGACACATCATCAGCTGCCGCTTAAGCAATCGAGCGGAGTCACCTAGTGCAG,9100 fluorescence intensity (a.u.)
14,GGCAGCACAGAATTGTTTTCCCTTTCGATCGATCAAGATGCGGAGTCACCTAGTGCAG,8700 fluorescence intensity (a.u.)
15,GGGTTATTCTGGTAAAATCGCATCAACATAGCTTCTTATACGGAGTCACCTAGTGCAG,8490 fluorescence intensity (a.u.)
16,GTGGCAATGCAAACTCGTCTTGGAACCCACTGCTTTGCCTCGGAGTCACCTAGTGCAG,8192 fluorescence intensity (a.u.)
17,TGTTTTTCATGCCGCGCCATACTATTATGCTAGACACACGCGGAGTCACCTAGTGCAG,8030 fluorescence intensity (a.u.)
18,GAATGGGGATGGGGAATTGAGGAATAAACTCCCTCCTTTTCGGAGTCACCTAGTGCAG,13100 fluorescence intensity (a.u.)
19,GCATATTGTACTTTACTGTCACCTGGTATGTAATTCGCTCCGGAGTCACCTAGTGCAG,11900 fluorescence intensity (a.u.)
20,CTTCTCGCATCCGTGTCTTCATCCTTGATCCTCCACTCTCCGGAGTCACCTAGTGCAG,9370 fluorescence intensity (a.u.)
21,GGTCGTGGCACGCTCAGGGGAGGGGCTCCCGGCGGGAATGCGGAGTCACCTAGTGCAG,8420 fluorescence intensity (a.u.)

row,Sequence,binding signal
1,TACCTCTATCCTCTAATATAAGGGATATTCACTATTTTCACGGAGTCACCTAGTGCAG,9080 fluorescence intensity (a.u.)
2,CTCACTTTCAGTCGGTTGGTCGGTTCTTGTGCTCATTGCCCGGAGTCACCTAGTGCAG,9180 fluorescence intensity (a.u.)
3,GGTTGGGGTAGGAGTCGATGGATGGCCCACCTGTCAGGGACGGAGTCACCTAGTGCAG,8120 fluorescence intensity (a.u.)
4,TTAATGTGCTTGTAGAAAGTGTCCAATTTTTAAAAATTGCCGGAGTCACCTAGTGCAG,8330 fluorescence intensity (a.u.)
5,TTTTGTTCTTGTTCGTTGAGTTTTTCACTTTGCTCTAATCCGGAGTCACCTAGTGCAG,8690 fluorescence intensity (a.u.)
6,GGGCGGCAGGGTCTATTTTTGTAAATTTTTTTTGCCGATACGGAGTCACCTAGTGCAG,12300 fluorescence intensity (a.u.)
7,GCACCTTCCGCGAAGCTTCCTCTCCTGCCTGCGCGTTGACCGGAGTCACCTAGTGCAG,14600 fluorescence intensity (a.u.)
8,GCGGGAGGGCGGGGCCCCGGTGTGCAGGTGCTGGCGGACGCGGAGTCACCTAGTGCAG,8140 fluorescence intensity (a.u.)
9,CGCTCACTCTCGCGCGCGCGCACACACTCGCATCGTCGCACGGAGTCACCTAGTGCAG,11900 fluorescence intensity (a.u.)
10,AACATTTGTTTCACTCGTTGGTCAACTACAACATTTGACCCGGAGTCACCTAGTGCAG,9450 fluorescence intensity (a.u.)
11,CTTTTGTATCGCACGCCACAACACCATGCATTTAATTGGTCGGAGTCACCTAGTGCAG,9880 fluorescence intensity (a.u.)
12,AATATTTATCTGATCCCTTCTATACCATTAAAATTTTAACCGGAGTCACCTAGTGCAG,8360 fluorescence intensity (a.u.)
13,CGACACCAACTCATCCCTCTTCCCCAACCGCGGCCCACCTCGGAGTCACCTAGTGCAG,9980 fluorescence intensity (a.u.)
14,GCCTATTTTTTCGTACGGAGTTGGCTTGTAGTAGTTGCATCGGAGTCACCTAGTGCAG,8950 fluorescence intensity (a.u.)
15,CTGAAAATTTTGTGCGCTCACACCATGTGCTACATTTGTCCGGAGTCACCTAGTGCAG,10700 fluorescence intensity (a.u.)
16,TCTTAGTTGTTTTTTTTACTTCTATTGTGTCTATTGGATTCGGAGTCACCTAGTGCAG,8310 fluorescence intensity (a.u.)
17,CAGGTTCATGCATGCGTGATTTCTTGGTTTTGTTTCTCCGCGGAGTCACCTAGTGCAG,10400 fluorescence intensity (a.u.)
18,AGCACTACCCAGCCACACAACCATAAGTCGTCTCTCAGTGCGGAGTCACCTAGTGCAG,9040 fluorescence intensity (a.u.)
19,TGTTCACATATCGCTTCATGTATTTACCACTAGTTAAAAACGGAGTCACCTAGTGCAG,9420 fluorescence intensity (a.u.)
20,GGCTTTGTTGTGTTGAGCCCTTTCCTGGGCCTATAAATTCCGGAGTCACCTAGTGCAG,10400 fluorescence intensity (a.u.)
21,AATCCGCCATTAGCACGTGTGGGTTACTGTAGCATTTATACGGAGTCACCTAGTGCAG,8960 fluorescence intensity (a.u.)

row,Sequence,binding signal
1,GATTGAAAATCCGCATCCCTACATATTGCTTGCTGGTAATCGGAGTCACCTAGTGCAG,9700 fluorescence intensity (a.u.)
2,AGATGCTATTTTCTGTCGACAGGCTATACACGGTCCCAAACGGAGTCACCTAGTGCAG,8740 fluorescence intensity (a.u.)
3,GTTGTTGTCCTTCAATGTTCACTATGATGTTGCTCTTTTACGGAGTCACCTAGTGCAG,8330 fluorescence intensity (a.u.)
4,GAATGGTTAAACATGTGAGAAAAAGTCAACGGCTATTAAACGGAGTCACCTAGTGCAG,10200 fluorescence intensity (a.u.)
5,ATAGTGTCTGTTTGGTGAGCTTCCTGTAGATGCAACTCTCCGGAGTCACCTAGTGCAG,9150 fluorescence intensity (a.u.)
6,GGCCCAAGTCCACTAAACTGCCCAAGATTGCAGGCTCACACGGAGTCACCTAGTGCAG,8080 fluorescence intensity (a.u.)
7,TTGGTGGCCTTTTCTCCCTTTTTTGCATGTGCTTTGCTCTCGGAGTCACCTAGTGCAG,14100 fluorescence intensity (a.u.)
8,ACTGACACGTCCCATATATCATGCACCAACCGCCAACCCACGGAGTCACCTAGTGCAG,8310 fluorescence intensity (a.u.)
9,CGAAACTGACATGTGGGCCCCACCTACTTTTTTTATTTATCGGAGTCACCTAGTGCAG,10200 fluorescence intensity (a.u.)
10,ATCTCCCTTCTCTTCTGCTTCCGATCTGCAGCGCCTTCCGCGGAGTCACCTAGTGCAG,9300 fluorescence intensity (a.u.)
11,ACTCCCACCTATTTGTATAAGTTAACACATATATATTGACCGGAGTCACCTAGTGCAG,8580 fluorescence intensity (a.u.)
12,AGGGGATTGACAATTCGACATTGGCCAACTCTTTATCTGTCGGAGTCACCTAGTGCAG,8500 fluorescence intensity (a.u.)
13,GACAGGTGGGAAAAATGAATGGTGAATAGTTGTGATTGGTCGGAGTCACCTAGTGCAG,10200 fluorescence intensity (a.u.)
14,ATGCAGATGTCATCTCATCTCATCTCATCTCTATCCAATTCGGAGTCACCTAGTGCAG,8190 fluorescence intensity (a.u.)
15,TAAGCTGTTTCTCTTGATACTCGATCTACATCTTTTCCCTCGGAGTCACCTAGTGCAG,9340 fluorescence intensity (a.u.)
16,CCGGGTGGAGGGCGGGGAAGCGGCGGCGGAACTCCGGGCTCGGAGTCACCTAGTGCAG,8490 fluorescence intensity (a.u.)
17,ATGGGTTGCTGGTGCTGTGGGGACGACAGGGTGGAGTCTACGGAGTCACCTAGTGCAG,9520 fluorescence intensity (a.u.)
18,TCCGTCTTCTCCTCCTGCTCCTTGATGCGCTCGCCGCTGACGGAGTCACCTAGTGCAG,8420 fluorescence intensity (a.u.)
19,CCAAAACACCCACTGCCTACCCGTCGCCGCCCGCCGCCATCGGAGTCACCTAGTGCAG,8420 fluorescence intensity (a.u.)
20,GCCCTATGTATATTTAGCTCAAATGTTGCTAACTTATATACGGAGTCACCTAGTGCAG,9870 fluorescence intensity (a.u.)
21,TTTTTAAGGTTAACTGTCAACTACTCGCATTTCTCATATACGGAGTCACCTAGTGCAG,8280 fluorescence intensity (a.u.)
